{
  "sequences": {"note": "Protein sequences, listed by entry. Tags and fused reporters are not part of them. Lines headed by an entry give the natural chain unless they say otherwise; changes in a name come on top. Chains listed by the source or under a name are the forms on record and can include a tag or linker.", "APOER2 intracellular domain (Arg645 to Pro700) (Q14114, form named)": "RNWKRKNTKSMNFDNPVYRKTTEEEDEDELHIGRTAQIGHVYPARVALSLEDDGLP"},
  "source": "paper doi:10.1101/2024.12.31.630881",
  "binders": {"B1": {"name": "SNX31 (protein, UniProt Q8N9S9-1 1-440)", "chain": "MKMHFCIPVSQQRSDALGGRYVLYSVHLDGFLFCRVRYSQLHGWNEQLRRVFGNCLPPFPPKYYLAMTTAMADERRDQLEQYLQNVTMDPNVLRSDVFVEFLKLAQLNTFDIATKKAYLDIFLPNEQSIRIEIITSDTAERVLEVVSHKIGLCRELLGYFGLFLIRFGKEGKLSVVKKLADFELPYVSLGSSEVENCKVGLRKWYMAPSLDSVLMDCRVAVDLLYMQAIQDIEKGWAKPTQAQRQKLEAFQKEDSQTKFLELAREVRHYGYLQLDPCTCDYPESGSGAVLSVGNNEISCCITLPDSQTQDIVFQMSRVKCWQVTFLGTLLDTDGPQRTLNQNLELRFQYSEDSCWQWFVIYTKQAFLLSSCLKKMISEKMVKLAAENTEMQIEVPEQSKSKKYHIQQSQQKDYSSFLSRKSKIKIAKDDCVFGNIKEEDL"}},
  "biological_target": "APOER2 intracellular domain (Arg645 to Pro700) (UniProt Q14114)",
  "assay": "two-hybrid",
  "note": "These are yes or no findings as the source states them, for the method shown. Some entries that bind do so weakly or less than the wild type.",
  "data": [
    {"binder": "B1", "values": [
      {"measurement": "binding", "result": "binds"}
    ]}
  ]
}
